According to PubChem BioAssay AID2685 (National Center for Advancing Translational Sciences (NCATS), 2010):
The other results are listed elsewhere or left out. The main result of the screen is listed elsewhere. These columns were measured beside it and carry no call. The list favours compounds with an active or inconclusive main result. Potencies come from curve fits of mixed quality, noted in brackets.

Test: qHTS Assay for Lipid Storage Modulators in Drosophila S3 Cells;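 as to cell number change: cells counted by Cell Tracker Red CMTPX staining in the red channel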
Conditions: BODIPY lipid droplet fluorescence, 18-24 h; for cell number change: measured here: cell count max response, cells fed with added oleic acid
How it was run: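 Drosophila S3 cells loaded with oleic acid (400 uM, as added) and compounds at several concentrations; lipid droplets imaged by 488-nm laser-scanning cytometry, 500–530 nm intensity and object ratio to cell channel. Percent activity normalized to 20 uM Triacsin C.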

[1] = measured here: lipid fluorescence (Fed channel) AC50, cells fed with added oleic acid
[2] = measured here: cell number channel AC50, cells fed with added oleic acid

SMILES | cell number change [%] | AC50 [1] | AC50 [2]
CCCn1c(SCC(=O)Nc2ccc(Cl)cn2)nnc1C1CC1 | -14.6 | 580 nM [rising, partial curve, poor fit] | –
O=C(NCc1ccccn1)c1ccc(OC2CCN(Cc3ccc(CO)o3)CC2)cc1 | 11.7 | 366 nM [falling, full curve] | –
O=C(CN1CCC(n2nnc3cc(F)ccc32)CC1)N1CCCc2ccccc21 | -0.688 | 29100 nM [falling, single point] | –
CCN(Cc1ccccc1)C(c1cccs1)c1nnnn1C1CCCCC1 (centres undefined) | -17.7 | – | –
Cc1c(-c2nc(N)nc(Nc3ccccc3F)n2)oc2ccccc12 | -11.1 | 146 nM [rising, full curve, poor fit] | –
COc1ccc([N+](=O)[O-])cc1NC(=O)c1cc(C)c(C)o1 | – | 920 nM [rising, full curve, poor fit] | –
O=C(NCCSCc1ccco1)c1ccc(CN2CCOCC2)cc1 | -5.8 | 58 nM [falling, full curve, poor fit] | –
C/C(=N\NC(=O)CSCc1ccccc1Br)c1cccc([N+](=O)[O-])c1 | 28.1 | 1640 nM [rising, full curve] | –
COc1ccc(CCNC(=O)c2ccccc2NC(=O)CN2CCN(c3ccccc3O)CC2)cc1 | – | 4110 nM [falling, partial curve, poor fit] | –
Clc1cccc2c3c([nH]c12)CCNC3 | -4.23 | – | 6510 nM [rising, single point]
CCOC(=O)C(Cc1ccccc1)c1ccnc2nc(N)nn12 (centres undefined) | – | – | 708 nM [rising, single point]
CCOC(=O)C(NC(=O)CC)(Nc1sc(C)c(CC)c1C#N)C(F)(F)F (centres undefined) | – | 5800 nM [rising, partial curve] | 820 nM [rising, single point]
CC(Oc1ccccc1)C(=O)N1CCN(c2ncccn2)CC1 (centres undefined) | 1.35 | 4110 nM [falling, single point] | –
CCOC(=O)c1c(NC(=O)C(=O)N/N=C/c2ccc(OCC)cc2)sc2c1CCCCC2 | 11.3 | 1030 nM [rising, partial curve] | –
O=C(Nc1ccc(Cc2ccncc2)cc1)C1CCC(N2C(=O)C3C4C=CC(C5CC45)C3C2=O)CC1 (centres undefined) | -7.98 | – | 73.1 nM [rising, full curve, poor fit]
C=CCn1c(SCC(=O)c2c(N)n(C)c(=O)n(C)c2=O)nnc1-c1ccccc1F | – | 146 nM [rising, full curve, poor fit] | 411 nM [rising, full curve]
CCN(CC)c1ccc(NC(=O)c2cc(Cl)ccc2OC)cc1 | 6.9 | 4110 nM [rising, partial curve] | –
Oc1ccc(CN2CCCCC2)c2cccnc12 | -51.3 | 29100 nM [falling, single point] | 32600 nM [falling, single point]
COc1ccc(C(C(=O)NCC2CCCO2)N(Cc2cccs2)C(=O)c2snc(C(N)=O)c2N)cc1 (centres undefined) | -36.8 | – | –

SMILES | cell number change [%] | AC50 [1] | AC50 [2]
C=CCn1c2ccccc2c2nnc(SCc3[nH]c(=O)[nH]c3C(=O)CCCCC(=O)OCC)nc21 | -17.2 | – | –
COc1ccccc1NC(=O)CSc1nnc(-c2ccco2)n1Cc1ccco1 | – | 5170 nM [rising, single point] | 5170 nM [rising, single point]
COc1ccccc1CNc1cc(CSc2ccc(Cl)cc2)nc(C)n1 | – | 6510 nM [rising, single point] | 1840 nM [rising, partial curve]
N#CC(=C1CCCC1)c1nc(-c2ccccc2)cs1 | 0.768 | 29100 nM [rising, single point] | –
O=c1[nH]nc(SCCS(=O)(=O)c2ccc(F)cc2)n1-c1ccc2c(c1)OCCO2 | -54.8 | 29100 nM [falling, single point] | 29100 nM [falling, single point]
CC(NC(=O)/C(=C/c1ccc2c(c1)OCO2)NC(=O)c1cccc([N+](=O)[O-])c1)C(=O)O (centres undefined) | 11.4 | 580 nM [rising, partial curve, poor fit] | 651 nM [rising, full curve, poor fit]
CNC(=O)Nc1ccccc1C(=O)NCc1ccccc1 | 53.7 | 6510 nM [falling, single point] | 29100 nM [rising, single point]
CCOc1ccc(OCc2ccc(C(=O)OCc3ccccn3)o2)cc1 | 1.4 | 1160 nM [rising, full curve, poor fit] | –
Cc1ccccc1/C=C/c1cccc[n+]1C | -0.351 | 6510 nM [rising, single point] | 651 nM [rising, single point]
COc1ccc(CCC(=O)N2CCN(S(=O)(=O)c3cccs3)CC2)cc1 | 14.1 | – | –
CCOc1ccc(C(=O)Nc2ccc3c(c2)OCCO3)cc1OC | -7.94 | 1840 nM [rising, partial curve] | –
CN(Cc1ccccc1)C(=O)Nc1ccccc1 | -11.8 | 3260 nM [rising, single point] | –
COc1ccc(-n2nccc2-c2nn(-c3cccc(OC)c3)c(=O)n(C)c2=O)cc1 | – | – | 5170 nM [rising, single point]
NS(=O)(=O)c1ccc(NC(=O)c2ccc3nccnc3c2)cc1 | -18.6 | 18400 nM [falling, single point] | 4.61 nM [falling, full curve, poor fit]
CC(C)c1ccc(/C=N/NC(=O)c2nnn(-c3nonc3N)c2CN(C)C2CCCCC2)cc1 | 19.5 | – | –
CCN1C(=NCCc2cccs2)N[C@@H](c2cccs2)C(C(=O)OC)=C1C | 1.94 | 5170 nM [falling, single point] | –
O=C(COc1ccc(Cl)cc1)NCc1nnc(SCC(=O)N2CCCC2)o1 | – | 4610 nM [rising, full curve] | 6510 nM [rising, single point]
CC1CC(C)CN(S(=O)(=O)c2ccc(NC(=O)[C@@H]3CCCN3C(=O)c3cccs3)cc2)C1 (some centres undefined) | -21.1 | 2310 nM [rising, partial curve, poor fit] | –
C=Cn1cc[n+](CC(=O)c2cc(C(C)(C)C)c(O)c(C(C)(C)C)c2)c1 | -0.351 | – | –

SMILES | cell number change [%] | AC50 [1] | AC50 [2]
CCCN(CC(=O)Nc1ccccc1C)C(=O)Cc1c(C)nc2ccccc2c1C | 3.65 | 820 nM [rising, full curve, poor fit] | 2310 nM [rising, partial curve]
CN(C)S(=O)(=O)c1ccc(S(=O)(=O)N2CCCC(C(=O)NC3CC3)C2)cc1 (centres undefined) | 4.78 | – | –
COC(=O)C[n+]1cccc2ccccc21 | 7.44 | 130 nM [falling, full curve, poor fit] | 130 nM [falling, full curve, poor fit]
Cc1c2cnn(-c3ccccc3)c(=O)c2c(C)n1CCCC(=O)N1CCN(c2ncccn2)CC1 | -1.49 | – | –
Cc1onc(-c2ccccc2)c1C(=O)OCC(=O)Nc1ccc(C#N)cc1 | -2.06 | – | –
Cc1c(NC(=O)COC(=O)C2(c3ccccc3F)CCCC2)c(=O)n(-c2ccccc2)n1C | -26.9 | – | 13 nM [falling, full curve, poor fit]
COC(=O)CCCC(=O)N1CCCC(CCC(=O)NCc2ccc(F)c(F)c2)C1 (centres undefined) | -10.7 | 29100 nM [falling, single point] | –
CCC(=O)Nc1nc2cc(OC)ccc2s1 | 9.34 | – | –
COCCOC(=O)C1=C(C)NC2=C(C(=O)CC(c3cccs3)C2)C1c1ccsc1 (centres undefined) | 3.9 | 116 nM [falling, partial curve, poor fit] | –
Cc1ccc(-c2[nH]c(-c3ccccc3)nc2SCC(=O)NCC2CCCO2)cc1 (centres undefined) | -7.32 | – | –
Cn1c(C(=O)Nc2ccc3c(c2)OCCO3)cc2c(=O)n(C)c3ccccc3c21 | – | 1840 nM [rising, partial curve] | 2060 nM [rising, partial curve]
O=C(Nc1nccs1)c1ncc(Cl)c(Cl)c1Cl | -3.85 | – | –
O=S(=O)(NCCSc1nnc(-c2ccco2)n1-c1ccccc1)c1ccccc1 | 4.06 | 29100 nM [rising, single point] | –
COc1ccc(CNC(=O)C2CCCN(c3nn4c(=O)cc(C)nc4s3)C2)cc1 (centres undefined) | -11.6 | 29100 nM [rising, single point] | –
Cc1nc(N)[nH]c(=O)c1Oc1cccc(C(F)(F)F)c1 | -50.9 | 32600 nM [falling, single point] | 29100 nM [falling, single point]
CC1(C)CC2CC(C)(CN2S(=O)(=O)c2ccc(C(=O)Nc3cccc(S(=O)(=O)N4CCOCC4)c3)cc2)C1 (centres undefined) | -26.1 | 6510 nM [falling, partial curve, poor fit] | 2910 nM [falling, full curve, poor fit]
O=C(CCNS(=O)(=O)c1ccc(OC(F)(F)F)cc1)N1CCN(S(=O)(=O)c2cccc(F)c2)CC1 | 10.7 | 366 nM [falling, partial curve, poor fit] | 461 nM [falling, single point]
Cn1c(Oc2ccccc2NCc2cc(Br)ccc2O)cc(=O)n(C)c1=O | – | 731 nM [falling, full curve, poor fit] | –
O=C(Oc1ccc[nH]c1=O)c1cccc(Cl)c1 | 61.3 | 2910 nM [falling, full curve] | 3260 nM [rising, partial curve, poor fit]

Full records from above. Values in the order: cell number change [%]	AC50 [1]	AC50 [2]
`Cc1c(NC(=O)COC(=O)C2(c3ccccc3F)CCCC2)c(=O)n(-c2ccccc2)n1C` is listed with -26.9	–	13 nM [falling, full curve, poor fit]
`O=S(=O)(NCCSc1nnc(-c2ccco2)n1-c1ccccc1)c1ccccc1` is listed with 4.06	29100 nM [rising, single point]	–
